Experimental data reported in patent US20030212251 (published 2003).

Experiment: Boc solid-phase peptide synthesis; methylbenzhydrylamine resin; diisopropylcarbodiimide; TBTU for recoupling
Settings: whole synthesis

Work on “Acetil-Toac-Ser-Tyr-Ser-Nle-Glu-His-DPhe-Arg-Trp-Gly-Lys-Pro-Val-CONH2 (FRWGKPV; N-acetyl-Toac, Nle, D-Phe, C-terminal amide; printed: Phe-Arg-Trp-Gly-Lys-Pro-Val-)” yielded a crude yield of 83%.
